According to PubChem BioAssay AID540256 (National Center for Advancing Translational Sciences (NCATS), 2011):
Where “and” joins values, the source holds several entries; their conditions need not be identical. Equal values may be shown once. Out of some 300,000 compounds screened, about 3,700 (1.2%) were called active. This list was built around the results that the source calls inconclusive (neither active nor inactive); the mix of calls is not that of the screen. Calls follow the shape of the full dose curve; tested in HEK293 cells. Potencies of inconclusive entries are doubtful fits and often do not repeat.

experiment: qHTS for Inhibitors of binding or entry into cells for Lassa Virus; settings: Lassa virus pseudotype entry inhibition, cell reporter; activity change, negative = inhibition: at 37.9 µM (top of the series) unless noted; also: nearly all actives have a fitted effect of over 50% in size
% is scaled to controls: 0 for no effect and ±100 for the full control effect; potency is read from the fitted curve at half-maximal effect.

SMILES	Potency	activity change, negative = inhibition
CCCOc1ccc(C(=O)NNC(=S)NC(=O)c2ccccc2[N+](=O)[O-])cc1	inconclusive: 14.1 µM [inhibitor, single point]	
CCCN(CCC)C1=N/C(=C\c2ccco2)C(=O)N1c1ccccc1		inactive: 15.8%
CCc1ccccc1N(C(=O)c1ccco1)C(C(=O)NC1CCCC1)c1cccnc1 (configuration not stated)	inconclusive: 0.355 µM [inhibitor, full curve, poor fit]	
CCc1nnc(NC(=O)CCS(=O)(=O)c2ccccc2)s1	inconclusive: 31.6 µM [inhibitor, partial curve, poor fit]	
Fc1cnc(N2CCN(c3ccccc3)CC2)nc1N1CCN(c2ccccc2)CC1	inactive and inconclusive: 6.31 µM [inhibitor, partial curve, poor fit]	
CN1C(=O)NC(c2cccc(O)c2)C(C(=O)c2cccs2)C1(O)C(F)(F)F (configuration not stated)	inconclusive: 0.58 µM [inhibitor, partial curve, poor fit]	
COc1cccc2sc(NNC(=O)C3=COCCO3)nc12	inconclusive: 7.94 µM [activator, partial curve, poor fit]	
CCOC(=O)Nc1n[nH]c(NC(=O)OCC)c1[N+](=O)[O-]	inconclusive: 0.708 µM [activator, single point]	
NS(=O)(=O)c1ccc(NC(=O)COC(=O)C2(c3ccccc3F)CCCC2)cc1	inconclusive: 20 µM [inhibitor, partial curve, poor fit]	
NNC(=O)c1cccc(COc2ccc(Br)cc2)c1	inconclusive: 11.2 µM [inhibitor, single point]	
CCCn1c(C)cc(=O)c2cc(NC(=O)c3cnccn3)ccc21		inactive: -8.34%
S=C(c1ccc(-c2cccc(Cl)c2)o1)N1CCCCC1	inconclusive: 11.2 µM [inhibitor, single point]	
CN1CCN(Cc2nc3ccccc3c(=O)n2Cc2nc(-c3ccc([N+](=O)[O-])cc3)cs2)CC1	inconclusive: 35.5 µM [inhibitor, single point]	
CCn1ccc2cc(S(=O)(=O)N3CCCN(C(=O)Nc4ccccc4F)CC3)ccc21		inactive: -18.3% [at 46.1 µM]
OC(COCC1COc2ccccc2O1)CN1CCN(c2ccccn2)CC1 (configuration not stated)	inactive	
CCOc1cc(C2c3c(-c4cc(C)ccc4O)n[nH]c3C(=O)N2CCCOC(C)C)ccc1O (configuration not stated)	inconclusive: 3.98 µM [inhibitor, full curve, poor fit]	
CS(=O)(=O)N1CCC(C(=O)NCc2ccncc2)CC1		inactive: 12.3%
CCn1cnc2sc(-c3ccccc3)cc2c1=O	inconclusive: 35.5 µM [inhibitor, single point]	
COc1ccc(N=Cc2c(O)ccc3ccccc23)cc1	inconclusive: 35.5 µM [inhibitor, single point]	
CCOC(=O)c1c(-c2ccccc2)csc1NC(=O)C(C)NCCCN1CCOCC1 (configuration not stated)	inconclusive: 10 µM [inhibitor, partial curve]	
CCCCOc1ccc(CN2CCN(CC)CC2)cc1		inactive: -1.8%
CCCCn1nc(CC(=O)NCCN(CC)CC)c2ccccc2c1=O		inactive: 5.22% [at 46.1 µM]
Cc1ccc(CN(C(=O)c2ccc(C(C)(C)C)cc2)c2ccccn2)o1		inactive: 27.4% [at 46.1 µM]

No new results follow: entries from further up.
SMILES	Potency	activity change, negative = inhibition
CCCN(CCC)C1=N/C(=C\c2ccco2)C(=O)N1c1ccccc1		inactive: 15.8%
CCc1ccccc1N(C(=O)c1ccco1)C(C(=O)NC1CCCC1)c1cccnc1 (configuration not stated)	inconclusive: 0.355 µM [inhibitor, full curve, poor fit]	
CCc1nnc(NC(=O)CCS(=O)(=O)c2ccccc2)s1	inconclusive: 31.6 µM [inhibitor, partial curve, poor fit]	
Fc1cnc(N2CCN(c3ccccc3)CC2)nc1N1CCN(c2ccccc2)CC1	inactive and inconclusive: 6.31 µM [inhibitor, partial curve, poor fit]	

More entries.

SMILES	Potency	activity change, negative = inhibition
CC(C)(C)c1ccc(C(=O)Nc2ccc(CC(=O)O)cc2)o1	active: 2.31 µM	
CCn1c2ccccc2c2cc(/C=N/n3c(C)nnc3C)ccc21	inconclusive: 29.1 µM [inhibitor, single point]	
COc1ccccc1NC(=O)c1ccc(C)c(S(=O)(=O)N2CCCCC2)c1	inconclusive: 2.82 µM [inhibitor, full curve]	
COc1ccc(CNC(=O)C(Cc2ccccc2)n2cccc2)cc1 (configuration not stated)	inconclusive: 4.61 µM [inhibitor, full curve, poor fit]	
COc1cccc(-c2ccc(C#N)c(SCC(=O)NCCc3ccc(Cl)cc3)n2)c1	inconclusive: 1 µM [inhibitor, full curve]	
COc1ccc2c(c1)CCc1c(C(=O)Nc3cc(OC)c(Cl)cc3OC)noc1-2		inactive: 11.9% [at 46.1 µM]
CCCn1c(=O)c2ccccc2n2c(SCc3nnc(-c4ccccc4Br)o3)nnc12	inconclusive: 0.517 µM [inhibitor, full curve, poor fit]	
CCCN1CCN(c2nc(-c3cccs3)nc3ccccc23)CC1	inconclusive: 25.9 µM [inhibitor, partial curve, poor fit]	
CC(C)NC(=O)NC(=O)COc1ccc(Br)cc1Br	active: 7.31 µM	
O=C1c2cccc3c(N4CCCCC4)ccc(c23)C(=O)N1CCO	inconclusive: 29.1 µM [activator, single point]	
Cc1cc(C)n(-c2nc(N(c3ccccc3)c3ccccc3)nc(-n3nc(C)cc3C)n2)n1	inconclusive: 29.1 µM [inhibitor, single point]	
CC(C)c1ccc(NC(=O)CSC2=Nc3ccccc3C3=NC(CCC(=O)NC4CCCCC4)C(=O)N23)cc1 (configuration not stated)	inconclusive: 1.58 µM [activator, partial curve, poor fit]	
Clc1ccc(C2=CC(c3ccco3)n3ncnc3N2)cc1 (configuration not stated)		inactive: -2.46%
CC(C)=CCN1C(=O)[C@@]2(CC(C)=C[C@@H](COCc3ccccc3)O2)c2ccccc21	inconclusive: 0.0299 µM [inhibitor, full curve, poor fit]	
Cc1cc(C)n(CC(=O)N/N=C/c2ccc([N+](=O)[O-])s2)n1	inconclusive: 10 µM [inhibitor, partial curve, poor fit]	
Cc1cc(C(=O)NC2CCCc3c2cnn3-c2ccccc2F)nc(C)n1 (configuration not stated)	inconclusive: 14.1 µM [inhibitor, single point]	
CCCn1c(SCc2cc(=O)[nH]c3ccccc23)nc2c1c(=O)n(C)c(=O)n2C		inactive: -0.367%
O=C(COc1ccccc1)NC1=NCCS1	inconclusive: 10 µM [activator, partial curve, poor fit]	
COc1ccc(CNC(=O)COC(=O)C2CCC(C(C)(C)C)CC2)cc1 (configuration not stated)	inconclusive: 20.6 µM [inhibitor, single point]	
CC1(C)CC(NC(=O)c2ccccc2)CC(C)(C)N1	inconclusive: 1 µM [inhibitor, single point]	
Cc1ccc(Cn2cc(S(=O)(=O)c3cccc(C)c3)c(=O)c3cc(F)c(N4CCOCC4)cc32)cc1		inactive: -16.9% [at 46.1 µM]
Cc1cccc(-c2cc3nc4c(c(N5CCCC(O)C5)n3n2)CCC4)c1 (configuration not stated)	inconclusive: 7.3 µM [inhibitor, partial curve]	
CCC(C)n1c(=O)c2sccc2n2c(CCCC(=O)N3CCN(c4ccccc4)CC3)nnc12 (configuration not stated)		inactive: -3.16% [at 46.1 µM]

SMILES	Potency	activity change, negative = inhibition
O=C(N/N=C/c1sc(=O)n(Cc2ccc(Br)cc2)c1Cl)c1ccco1	inconclusive: 20 µM [inhibitor, single point]	
COC(=O)c1c(NC(=O)CSc2nc(-c3ccco3)cc(C(F)(F)F)n2)sc2c1CCCC2	inconclusive: 29.1 µM [inhibitor, single point]	
Cc1ccccc1N(C(=O)c1snc(C(N)=O)c1N)C(C(=O)NC1CCCCC1)c1ccc(O)cc1 (configuration not stated)	active: 11.2 µM	
CCN(CC(=O)Nc1c(F)cccc1F)C(=O)c1cccc(S(=O)(=O)N(C)c2ccccc2)c1	inconclusive: 12.6 µM [inhibitor, partial curve, poor fit]	
O=C1NC(=O)/C(=C\c2ccc(Sc3ccc(Cl)cc3)o2)N1		inactive: 0.192%
CCN(CC)CCCNC(=S)Nc1ccc(Br)cc1		inactive: -4.62% [at 46.1 µM]
COc1ccc(-c2csc3nc(C)nc(N4CCN(c5ccc(C(C)=O)cc5)CC4)c23)cc1OC	inconclusive: 12.6 µM [inhibitor, partial curve, poor fit]	
Cc1ccc(/C=C/C(=O)OCC(=O)Nc2cccnc2Cl)o1		inactive: 28.1% [at 46.1 µM]
Cc1ccc(S(=O)(=O)Nc2ccc(N(C)S(=O)(=O)c3ccc(C)cc3)cc2)cc1	inconclusive: 17.8 µM [inhibitor, partial curve, poor fit]	
CCn1c2ccccc2c2cc(CN3CCN(Cc4ccc(Br)cc4)CC3)ccc21	inconclusive: 11.2 µM [inhibitor, partial curve, poor fit]	
CSc1ccc(C(=O)C2CCCN(Cc3cccc4nccnc34)C2)cc1 (configuration not stated)		inactive: -1.76%
Cc1ccccc1Cn1nc(C)c(NC(=O)c2sc3ccccc3c2Cl)c1C		inactive: -17.7%
CS(=O)(=O)N1CCN(c2ccc([N+](=O)[O-])c(NCc3ccc(Cl)cc3)c2)CC1	inconclusive: 35.5 µM [inhibitor, single point]	
COC(=O)c1ccc([C@@H]2Nc3c(OC)ccc(C)c3[C@@H]3C=CC[C@@H]32)cc1	inconclusive: 35.5 µM [inhibitor, partial curve, poor fit]	
Cc1ccc(-c2nc(CS(=O)CC(=O)NCCCc3ccccc3)c(C)o2)cc1 (configuration not stated)		inactive: 1.08% [at 46.1 µM]
Cc1ccc(C(=O)OCC(=O)Nc2ccccc2)cc1NC(=O)c1ccco1		inactive: 5.78%
O=C(NCCCN1CCCC1)Nc1ccccc1[N+](=O)[O-]		inactive: -18.4%
O=C(CSc1nc2nn(-c3ccccc3)c(=O)c-2c2n1CCCCC2)Nc1ccc(OC(F)F)cc1	inconclusive: 0.891 µM [inhibitor, single point]	
O=C(O)c1ccc(/C=C/C(=O)c2ccc3c(c2)OCCCO3)cc1	inconclusive: 7.94 µM [inhibitor, partial curve, poor fit]	
COC(=O)c1ccc(C(=O)OC)c(NC(=O)COC(=O)C2CCCCC2)c1	inconclusive: 15.8 µM [activator, single point]	
CC(O)CNc1nc2c(c(=O)n(C)c(=O)n2C)n1C/C=C/c1ccccc1 (configuration not stated)	inconclusive: 11.6 µM [inhibitor, partial curve, poor fit]	
